# Cell number after 72 h of treatment

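The test systems are human melanoma cell lines, treated with a pair of drugs for 72 h and then stained and imaged. Each value is the count of nuclei relative to DMSO-treated wells, in %, so that 100 equals the control. Every drug was used at one fixed concentration, the higher of two screened. The file gives one value for each pair and line, without errors, so small differences may be noise.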 Only some of the drugs and lines screened are listed, without regard to their results.

Every entry is a combination with VX-702 at 2 µM: NC(=O)c1ccc(N(C(N)=O)c2c(F)cccc2F)nc1-c1ccc(F)cc1F

Compounds and concentrations:
KU-55933: O=c1cc(-c2cccc3c2Sc2ccccc2S3)oc(N2CCOCC2)c1 at 5 µM
darinaparsin: C[As](C)SC[C@H](NC(=O)CC[C@H](N)C(=O)O)C(=O)NCC(=O)O at 2 µM
cisplatin: N.N.[Cl][Pt][Cl] at 8 µM
ABT-263: CC1(C)CCC(c2ccc(Cl)cc2)=C(CN2CCN(c3ccc(C(=O)NS(=O)(=O)c4ccc(N[C@H](CCN5CCOCC5)CSc5ccccc5)c(S(=O)(=O)C(F)(F)F)c4)cc3)CC2)C1 at 2 µM
vatalanib: Clc1ccc(Nc2nnc(Cc3ccncc3)c3ccccc23)cc1 at 10 µM
stibogluconate: O=C(O)[C@@H]1[O][Sb](=[O])([O][Sb]2(=[O])[O][C@H]([C@H](O)CO)[C@H](O)[C@H](C(=O)O)[O]2)[O][C@H]([C@H](O)CO)[C@@H]1O (some centres not stated) at 10 µM
JZL184: O=C(Oc1ccc([N+](=O)[O-])cc1)N1CCC(C(O)(c2ccc3c(c2)OCO3)c2ccc3c(c2)OCO3)CC1 at 5 µM
enzastaurin: Cn1cc(C2=C(c3cn(C4CCN(Cc5ccccn5)CC4)c4ccccc34)C(=O)NC2=O)c2ccccc21 at 4 µM
ruxolitinib: N#CC[C@H](C1CCCC1)n1cc(-c2ncnc3[nH]ccc23)cn1 at 5 µM
crizotinib: C[C@@H](Oc1cc(-c2cnn(C3CCNCC3)c2)cnc1N)c1c(Cl)ccc(F)c1Cl at 1 µM
everolimus: CO[C@H]1C[C@@H]2CC[C@@H](C)[C@@](O)(O2)C(=O)C(=O)N2CCCC[C@H]2C(=O)O[C@H]([C@H](C)C[C@@H]2CC[C@@H](OCCO)[C@H](OC)C2)CC(=O)[C@H](C)/C=C(\C)[C@@H](O)[C@@H](OC)C(=O)[C@H](C)C[C@H](C)/C=C/C=C/C=C/1C at 0.1 µM
IMD-0354: O=C(Nc1cc(C(F)(F)F)cc(C(F)(F)F)c1)c1cc(Cl)ccc1O at 0.08 µM

Second drug	WM451Lu	WM3619	COLO 792	COLO 829	COLO 800	C32
vatalanib	87.1	75.4	76.7	93.7	78.1	75.7
enzastaurin	86.0	125	79.1	98.7	96.9	95.9
crizotinib	102	141	80.1	82.6	69.4	89.8
ruxolitinib	122	83.8	99.8	94.3	136	88.2
darinaparsin	96.7	84.3	72.3	87.0	86.8	103
ABT-263	110	76.9	18.8	61.0	46.3	74.2
KU-55933	107	87.0	88.1	80.6	56.0	82.7
cisplatin	94.6	92.2	95.4	95.2	93.9	88.6
IMD-0354	130	93.7	91.6	54.8	51.6	97.7
stibogluconate	82.4	93.9	95.0	85.9	110	90.5
everolimus	77.9	82.4	57.0	80.9	95.5	87.0
JZL184	93.8	71.1	108	103	106	83.0

Once more, the final 2:

* everolimus | WM451Lu: 77.9; WM3619: 82.4; COLO 792: 57.0; COLO 829: 80.9; COLO 800: 95.5; C32: 87.0
* JZL184 | WM451Lu: 93.8; WM3619: 71.1; COLO 792: 108; COLO 829: 103; COLO 800: 106; C32: 83.0

Data from the primary screen of doi:10.1371/journal.pone.0140310, rounded.